Experimental findings from publication PMC6411374, “Substrate channeling in oxylipin biosynthesis through a protein complex in the plastid envelope of Arabidopsis thaliana” (Journal of Experimental Botany, 2019) are described below.

These are yes or no findings as the source states them, for the method shown. In cells and extracts the contact can be indirect.

This assay concerns the target (His)6-tagged hydroperoxide lyase [HPL-(His)6] (A. thaliana). The experiment in a line: pull-down; purified (His)6-tagged bait imported into isolated Arabidopsis chloroplasts (2.5 mM Mg-ATP); mixed envelopes solubilised with […] decyl maltoside; Ni-NTA affinity chromatography, size exclusion on Superose 6 (peak I, ~250 kDa); co-purified bands identified by SDS-PAGE with protein sequencing, LOX2 also by western blot; only the target purified.

B1: allene oxide cyclase 2 (AOC2), endogenous in the envelope of Arabidopsis chloroplasts (enzyme, UniProt Q9LS02 78-253, looked up)
chain: PSKVQELSVYEINELDRHSPKILKNAFSLMFGLGDLVPFTNKLYTGDLKKRVGITAGLCVVIEHVPEKKGERFEATYSFYFGDYGHLSVQGPYLTYEDSFLAITGGAGIFEGAYGQVKLQQLVYPTKLFYTFYLKGLANDLPLELTGTPVPPSKDIEPAPEAKALEPSGVISNYTN
notes: allene oxide cyclase 2 (AOC2), A. thaliana, ~72 kDa (SDS-resistant trimer) and ~24 kDa (monomer) bands of the plastid envelope; Found both as trimer and as monomer; source: endogenous, envelopes of isolated Arabidopsis chloroplasts
Take B1: the binding entry is on record as “no binding”.

B2: lipoxygenase 2 (LOX2), endogenous in the envelope of Arabidopsis chloroplasts (enzyme, UniProt P38418 57-896, looked up)
chain: ANIEQEGNTVKEPIQNIKVKGYITAQEEFLEGITWSRGLDDIADIRGRSLLVELISAKTDQRITVEDYAQRVWAEAPDEKYECEFEMPEDFGPVGAIKIQNQYHRQLFLKGVELKLPGGSITFTCESWVAPKSVDPTKRIFFSDKSYLPSQTPEPLKKYRKEELETLQGKNREEVGEFTKFERIYDYDVYNDVGDPDNDPELARPVIGGLTHPYPRRCKTGRKPCETDPSSEQRYGGEFYVPRDEEFSTAKGTSFTGKAVLAALPSIFPQIESVLLSPQEPFPHFKAIQNLFEEGIQLPKDAGLLPLLPRIIKALGEAQDDILQFDAPVLINRDRFSWLRDDEFARQTLAGLNPYSIQLVEEWPLISKLDPAVYGDPTSLITWEIVEREVKGNMTVDEALKNKRLFVLDYHDLLLPYVNKVRELNNTTLYASRTLFFLSDDSTLRPVAIELTCPPNINKPQWKQVFTPGYDATSCWLWNLAKTHAISHDAGYHQLISHWLRTHACTEPYIIAANRQLSAMHPIYRLLHPHFRYTMEINARARQSLVNGGGIIETCFWPGKYALELSSAVYGKLWRFDQEGLPADLIKRGLAEEDKTAEHGVRLTIPDYPFANDGLILWDAIKEWVTDYVKHYYPDEELITSDEELQGWWSEVRNIGHGDKKDEPWWPVLKTQDDLIGVVTTIAWVTSGHHAAVNFGQYGYGGYFPNRPTTTRIRMPTEDPTDEALKEFYESPEKVLLKTYPSQKQATLVMVTLDLLSTHSPDEEYIGEQQEASWANEPVINAAFERFKGKLQYLEGVIDERNVNITLKNRAGAGVVKYELLKPTSEHGVTGMGVPYSISI
notes: lipoxygenase 2 (LOX2), A. thaliana, ~100 kDa band of the plastid envelope; also called 13-lipoxygenase; source: endogenous, envelopes of isolated Arabidopsis chloroplasts
B2: the binding entry is “no binding”.
